Measurements reported in PMC12508041.
Results are given in words; binding and its absence hold for the method and conditions named. Binding seen in cells or lysates may run through a third protein. Some results given as binding are weak or reduced against the parent protein; the word gives no strength.

The chains behind the UniProt entries cited, without tags or fusion partners.
UniProt Q9Z1E3: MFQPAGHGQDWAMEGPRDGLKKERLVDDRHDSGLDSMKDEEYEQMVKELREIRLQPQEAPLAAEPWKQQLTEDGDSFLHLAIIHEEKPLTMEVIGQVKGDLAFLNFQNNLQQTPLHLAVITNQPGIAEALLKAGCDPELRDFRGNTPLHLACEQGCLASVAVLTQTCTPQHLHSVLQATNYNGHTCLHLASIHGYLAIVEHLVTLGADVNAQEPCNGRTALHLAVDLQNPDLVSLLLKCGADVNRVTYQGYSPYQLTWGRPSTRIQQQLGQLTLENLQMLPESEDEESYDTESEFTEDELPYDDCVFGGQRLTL

Biological target: T1, Sterol regulatory element binding protein (SREBP) cleavage-activating protein (mouse (endogenous in primary astrocytes)) (UniProt Q6GQT6)
T1 sequence: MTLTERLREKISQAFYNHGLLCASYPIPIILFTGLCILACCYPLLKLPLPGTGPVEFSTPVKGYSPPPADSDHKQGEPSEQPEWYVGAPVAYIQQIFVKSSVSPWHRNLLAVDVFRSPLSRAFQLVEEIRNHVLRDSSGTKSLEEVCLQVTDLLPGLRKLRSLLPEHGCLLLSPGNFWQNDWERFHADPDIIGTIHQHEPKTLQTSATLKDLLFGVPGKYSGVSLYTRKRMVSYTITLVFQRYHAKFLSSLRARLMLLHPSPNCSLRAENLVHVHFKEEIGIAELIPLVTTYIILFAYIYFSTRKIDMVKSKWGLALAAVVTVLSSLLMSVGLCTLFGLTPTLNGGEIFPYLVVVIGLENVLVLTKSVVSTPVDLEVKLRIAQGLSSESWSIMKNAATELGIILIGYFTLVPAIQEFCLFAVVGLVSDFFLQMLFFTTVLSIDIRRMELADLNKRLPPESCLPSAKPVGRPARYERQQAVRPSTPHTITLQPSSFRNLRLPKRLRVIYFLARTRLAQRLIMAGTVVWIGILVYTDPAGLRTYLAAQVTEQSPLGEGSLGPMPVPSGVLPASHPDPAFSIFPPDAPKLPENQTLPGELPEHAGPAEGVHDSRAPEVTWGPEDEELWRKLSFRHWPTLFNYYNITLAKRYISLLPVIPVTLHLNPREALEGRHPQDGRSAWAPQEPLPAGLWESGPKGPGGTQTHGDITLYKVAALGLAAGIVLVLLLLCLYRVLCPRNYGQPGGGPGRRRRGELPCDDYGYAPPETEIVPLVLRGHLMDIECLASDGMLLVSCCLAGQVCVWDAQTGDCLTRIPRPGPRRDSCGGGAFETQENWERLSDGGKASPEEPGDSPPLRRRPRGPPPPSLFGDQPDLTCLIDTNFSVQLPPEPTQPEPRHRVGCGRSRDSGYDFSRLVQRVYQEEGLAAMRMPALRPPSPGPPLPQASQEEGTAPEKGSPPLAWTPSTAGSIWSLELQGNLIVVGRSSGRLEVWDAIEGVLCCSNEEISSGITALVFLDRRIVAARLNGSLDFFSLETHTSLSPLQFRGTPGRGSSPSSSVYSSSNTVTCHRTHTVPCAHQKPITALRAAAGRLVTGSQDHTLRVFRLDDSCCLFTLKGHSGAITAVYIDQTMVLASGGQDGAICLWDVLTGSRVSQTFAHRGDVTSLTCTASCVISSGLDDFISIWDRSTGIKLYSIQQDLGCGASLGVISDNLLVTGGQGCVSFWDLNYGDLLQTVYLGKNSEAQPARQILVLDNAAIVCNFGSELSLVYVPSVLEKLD
Assay: co-IP; endogenous proteins in astrocytes; immunoprecipitation with anti-SCAP, anti-IκBα and anti-NF-κB antibodies, then immunoblotting (n = 3); protocol in the Supplementary Materials and Methods

binding: binds
Substance: IκBα, an inhibitory subunit of NF-κB (from UniProt Q9Z1E3 1-314)
